Laboratory results taken from article PMC8206213, “An L-2-hydroxyglutarate biosensor based on specific transcriptional regulator LhgR” (Nature Communications, 2021).
A unit is not stated for every read-out.

Test: Emission and excitation spectra of purified LHGFR with or without 100 μM L-2-HG
Format: binding

## O=C(O)CC[C@H](O)C(=O)O [L-2-HG, L-2-Hydroxyglutarate]
Excitation 428 nm, Suppl. Fig. 8c
  Fluorescence intensity, excitation spectrum: 376961
Excitation 428 nm, Suppl. Fig. 8d
  Fluorescence intensity, excitation spectrum: 416622
Excitation 430 nm, Suppl. Fig. 8c
  Fluorescence intensity, excitation spectrum: 403300
Excitation 430 nm, Suppl. Fig. 8d
  Fluorescence intensity, excitation spectrum: 446658
Excitation 432 nm, Suppl. Fig. 8c
  Fluorescence intensity, excitation spectrum: 442942
Excitation 432 nm, Suppl. Fig. 8d
  Fluorescence intensity, excitation spectrum: 490401
Excitation 434 nm, Suppl. Fig. 8c
  Fluorescence intensity, excitation spectrum: 513298
Excitation 434 nm, Suppl. Fig. 8d
  Fluorescence intensity, excitation spectrum: 570170
Excitation 436 nm, Suppl. Fig. 8c
  Fluorescence intensity, excitation spectrum: 600225
Excitation 436 nm, Suppl. Fig. 8d
  Fluorescence intensity, excitation spectrum: 660880
Excitation 438 nm, Suppl. Fig. 8c
  Fluorescence intensity, excitation spectrum: 633266
Excitation 438 nm, Suppl. Fig. 8d
  Fluorescence intensity, excitation spectrum: 710516
Excitation 440 nm, Suppl. Fig. 8c
  Fluorescence intensity, excitation spectrum: 672221
Excitation 440 nm, Suppl. Fig. 8d
  Fluorescence intensity, excitation spectrum: 753426
Excitation 442 nm, Suppl. Fig. 8c
  Fluorescence intensity, excitation spectrum: 701301
Excitation 442 nm, Suppl. Fig. 8d
  Fluorescence intensity, excitation spectrum: 781102
Excitation 444 nm, Suppl. Fig. 8c
  Fluorescence intensity, excitation spectrum: 726084
Excitation 444 nm, Suppl. Fig. 8d
  Fluorescence intensity, excitation spectrum: 808990
Excitation 446 nm, Suppl. Fig. 8c
  Fluorescence intensity, excitation spectrum: 762067
Excitation 446 nm, Suppl. Fig. 8d
  Fluorescence intensity, excitation spectrum: 846079
Excitation 448 nm, Suppl. Fig. 8c
  Fluorescence intensity, excitation spectrum: 782118
Excitation 448 nm, Suppl. Fig. 8d
  Fluorescence intensity, excitation spectrum: 873313
Excitation 450 nm, Suppl. Fig. 8c
  Fluorescence intensity, excitation spectrum: 817397
Excitation 450 nm, Suppl. Fig. 8d
  Fluorescence intensity, excitation spectrum: 910254
Excitation 452 nm, Suppl. Fig. 8c
  Fluorescence intensity, excitation spectrum: 841311
Excitation 452 nm, Suppl. Fig. 8d
  Fluorescence intensity, excitation spectrum: 939648
Excitation 454 nm, Suppl. Fig. 8c
  Fluorescence intensity, excitation spectrum: 869053
Excitation 454 nm, Suppl. Fig. 8d
  Fluorescence intensity, excitation spectrum: 969090
Excitation 456 nm, Suppl. Fig. 8c
  Fluorescence intensity, excitation spectrum: 933158
Excitation 456 nm, Suppl. Fig. 8d
  Fluorescence intensity, excitation spectrum: 1.05E+06
Excitation 458 nm, Suppl. Fig. 8c
  Fluorescence intensity, excitation spectrum: 1.00E+06
Excitation 458 nm, Suppl. Fig. 8d
  Fluorescence intensity, excitation spectrum: 1.13E+06
Excitation 460 nm, Suppl. Fig. 8c
  Fluorescence intensity, excitation spectrum: 1.08E+06
Excitation 460 nm, Suppl. Fig. 8d
  Fluorescence intensity, excitation spectrum: 1.21E+06
Excitation 462 nm, Suppl. Fig. 8c
  Fluorescence intensity, excitation spectrum: 1.11E+06
Excitation 462 nm, Suppl. Fig. 8d
  Fluorescence intensity, excitation spectrum: 1.25E+06
Excitation 464 nm, Suppl. Fig. 8c
  Fluorescence intensity, excitation spectrum: 1.16E+06
Excitation 464 nm, Suppl. Fig. 8d
  Fluorescence intensity, excitation spectrum: 1.30E+06
Excitation 466 nm, Suppl. Fig. 8c
  Fluorescence intensity, excitation spectrum: 1.19E+06
Excitation 466 nm, Suppl. Fig. 8d
  Fluorescence intensity, excitation spectrum: 1.34E+06
Excitation 468 nm, Suppl. Fig. 8c
  Fluorescence intensity, excitation spectrum: 1.23E+06
Excitation 468 nm, Suppl. Fig. 8d
  Fluorescence intensity, excitation spectrum: 1.40E+06
Excitation 470 nm, Suppl. Fig. 8c
  Fluorescence intensity, excitation spectrum: 1.28E+06
Excitation 470 nm, Suppl. Fig. 8d
  Fluorescence intensity, excitation spectrum: 1.45E+06
Excitation 472 nm, Suppl. Fig. 8c
  Fluorescence intensity, excitation spectrum: 1.32E+06
Excitation 472 nm, Suppl. Fig. 8d
  Fluorescence intensity, excitation spectrum: 1.50E+06
Excitation 474 nm, Suppl. Fig. 8c
  Fluorescence intensity, excitation spectrum: 1.38E+06
Excitation 474 nm, Suppl. Fig. 8d
  Fluorescence intensity, excitation spectrum: 1.56E+06
Excitation 476 nm, Suppl. Fig. 8c
  Fluorescence intensity, excitation spectrum: 1.43E+06
Excitation 476 nm, Suppl. Fig. 8d
  Fluorescence intensity, excitation spectrum: 1.63E+06
Excitation 478 nm, Suppl. Fig. 8c
  Fluorescence intensity, excitation spectrum: 1.52E+06
Excitation 478 nm, Suppl. Fig. 8d
  Fluorescence intensity, excitation spectrum: 1.73E+06
Excitation 480 nm, Suppl. Fig. 8c
  Fluorescence intensity, excitation spectrum: 1.62E+06
Excitation 480 nm, Suppl. Fig. 8d
  Fluorescence intensity, excitation spectrum: 1.86E+06
Excitation 482 nm, Suppl. Fig. 8c
  Fluorescence intensity, excitation spectrum: 1.71E+06
Excitation 482 nm, Suppl. Fig. 8d
  Fluorescence intensity, excitation spectrum: 1.97E+06
Excitation 484 nm, Suppl. Fig. 8c
  Fluorescence intensity, excitation spectrum: 1.69E+06
Excitation 484 nm, Suppl. Fig. 8d
  Fluorescence intensity, excitation spectrum: 1.95E+06
Excitation 486 nm, Suppl. Fig. 8c
  Fluorescence intensity, excitation spectrum: 1.66E+06
Excitation 486 nm, Suppl. Fig. 8d
  Fluorescence intensity, excitation spectrum: 1.93E+06
Excitation 488 nm, Suppl. Fig. 8c
  Fluorescence intensity, excitation spectrum: 1.65E+06
Excitation 488 nm, Suppl. Fig. 8d
  Fluorescence intensity, excitation spectrum: 1.91E+06
Excitation 490 nm, Suppl. Fig. 8c
  Fluorescence intensity, excitation spectrum: 1.64E+06
Excitation 490 nm, Suppl. Fig. 8d
  Fluorescence intensity, excitation spectrum: 1.91E+06
Excitation 492 nm, Suppl. Fig. 8c
  Fluorescence intensity, excitation spectrum: 1.62E+06
Excitation 492 nm, Suppl. Fig. 8d
  Fluorescence intensity, excitation spectrum: 1.91E+06
Excitation 494 nm, Suppl. Fig. 8c
  Fluorescence intensity, excitation spectrum: 1.64E+06
Excitation 494 nm, Suppl. Fig. 8d
  Fluorescence intensity, excitation spectrum: 1.91E+06
Excitation 496 nm, Suppl. Fig. 8c
  Fluorescence intensity, excitation spectrum: 1.66E+06
Excitation 496 nm, Suppl. Fig. 8d
  Fluorescence intensity, excitation spectrum: 1.94E+06
Excitation 498 nm, Suppl. Fig. 8c
  Fluorescence intensity, excitation spectrum: 1.69E+06
Excitation 498 nm, Suppl. Fig. 8d
  Fluorescence intensity, excitation spectrum: 1.98E+06
Excitation 500 nm, Suppl. Fig. 8c
  Fluorescence intensity, excitation spectrum: 1.76E+06
Excitation 500 nm, Suppl. Fig. 8d
  Fluorescence intensity, excitation spectrum: 2.08E+06
Excitation 502 nm, Suppl. Fig. 8c
  Fluorescence intensity, excitation spectrum: 1.91E+06
Excitation 502 nm, Suppl. Fig. 8d
  Fluorescence intensity, excitation spectrum: 2.25E+06
Excitation 504 nm, Suppl. Fig. 8c
  Fluorescence intensity, excitation spectrum: 2.34E+06
Excitation 504 nm, Suppl. Fig. 8d
  Fluorescence intensity, excitation spectrum: 2.76E+06
Excitation 506 nm, Suppl. Fig. 8c
  Fluorescence intensity, excitation spectrum: 2.84E+06
Excitation 506 nm, Suppl. Fig. 8d
  Fluorescence intensity, excitation spectrum: 3.35E+06
Excitation 508 nm, Suppl. Fig. 8c
  Fluorescence intensity, excitation spectrum: 3.24E+06
Excitation 508 nm, Suppl. Fig. 8d
  Fluorescence intensity, excitation spectrum: 3.78E+06
Excitation 510 nm, Suppl. Fig. 8c
  Fluorescence intensity, excitation spectrum: 3.46E+06
Excitation 510 nm, Suppl. Fig. 8d
  Fluorescence intensity, excitation spectrum: 4.04E+06
Excitation 512 nm, Suppl. Fig. 8c
  Fluorescence intensity, excitation spectrum: 3.68E+06
Excitation 512 nm, Suppl. Fig. 8d
  Fluorescence intensity, excitation spectrum: 4.26E+06
Excitation 514 nm, Suppl. Fig. 8c
  Fluorescence intensity, excitation spectrum: 3.82E+06
Excitation 514 nm, Suppl. Fig. 8d
  Fluorescence intensity, excitation spectrum: 4.43E+06
Excitation 516 nm, Suppl. Fig. 8c
  Fluorescence intensity, excitation spectrum: 3.88E+06
Excitation 516 nm, Suppl. Fig. 8d
  Fluorescence intensity, excitation spectrum: 4.49E+06
Excitation 518 nm, Suppl. Fig. 8c
  Fluorescence intensity, excitation spectrum: 3.87E+06
Excitation 518 nm, Suppl. Fig. 8d
  Fluorescence intensity, excitation spectrum: 4.49E+06
Excitation 520 nm, Suppl. Fig. 8c
  Fluorescence intensity, excitation spectrum: 3.79E+06
Excitation 520 nm, Suppl. Fig. 8d
  Fluorescence intensity, excitation spectrum: 4.40E+06
Excitation 522 nm, Suppl. Fig. 8c
  Fluorescence intensity, excitation spectrum: 3.58E+06
Excitation 522 nm, Suppl. Fig. 8d
  Fluorescence intensity, excitation spectrum: 4.15E+06
Excitation 524 nm, Suppl. Fig. 8c
  Fluorescence intensity, excitation spectrum: 3.08E+06
Excitation 524 nm, Suppl. Fig. 8d
  Fluorescence intensity, excitation spectrum: 3.57E+06
Excitation 526 nm, Suppl. Fig. 8c
  Fluorescence intensity, excitation spectrum: 2.23E+06
Excitation 526 nm, Suppl. Fig. 8d
  Fluorescence intensity, excitation spectrum: 2.59E+06
Excitation 528 nm, Suppl. Fig. 8c
  Fluorescence intensity, excitation spectrum: 1.32E+06
Excitation 528 nm, Suppl. Fig. 8d
  Fluorescence intensity, excitation spectrum: 1.53E+06
Excitation 530 nm, Suppl. Fig. 8c
  Fluorescence intensity, excitation spectrum: 864935
Excitation 530 nm, Suppl. Fig. 8d
  Fluorescence intensity, excitation spectrum: 1.02E+06
Excitation 532 nm, Suppl. Fig. 8c
  Fluorescence intensity, excitation spectrum: 614350
Excitation 532 nm, Suppl. Fig. 8d
  Fluorescence intensity, excitation spectrum: 720704
Excitation 534 nm, Suppl. Fig. 8c
  Fluorescence intensity, excitation spectrum: 457258
Excitation 534 nm, Suppl. Fig. 8d
  Fluorescence intensity, excitation spectrum: 537252
